Results reported in paper PMC12520676.
Results are given in words; binding and its absence hold for the method and conditions named. Binding seen in cells or lysates may run through a third protein. Some entries that bind do so weakly or less than the wild type.

Sequences of proteins named here, by UniProt entry; tags and fusion partners are left off.
UniProt Q3KP44: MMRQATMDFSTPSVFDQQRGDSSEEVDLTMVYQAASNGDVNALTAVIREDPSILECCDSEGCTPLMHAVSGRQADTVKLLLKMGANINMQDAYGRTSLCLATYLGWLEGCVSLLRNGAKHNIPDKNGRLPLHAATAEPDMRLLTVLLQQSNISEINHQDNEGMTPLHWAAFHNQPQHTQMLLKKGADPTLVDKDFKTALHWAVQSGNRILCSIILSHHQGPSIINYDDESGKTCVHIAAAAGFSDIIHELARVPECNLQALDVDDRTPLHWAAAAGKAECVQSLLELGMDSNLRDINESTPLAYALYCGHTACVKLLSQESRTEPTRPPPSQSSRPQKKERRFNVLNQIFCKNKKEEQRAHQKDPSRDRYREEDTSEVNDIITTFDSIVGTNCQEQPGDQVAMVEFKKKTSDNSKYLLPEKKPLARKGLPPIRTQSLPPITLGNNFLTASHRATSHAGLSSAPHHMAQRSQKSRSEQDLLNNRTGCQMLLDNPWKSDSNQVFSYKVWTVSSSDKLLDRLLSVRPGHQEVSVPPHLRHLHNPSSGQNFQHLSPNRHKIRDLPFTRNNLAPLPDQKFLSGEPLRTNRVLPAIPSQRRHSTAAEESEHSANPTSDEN
UniProt P48643: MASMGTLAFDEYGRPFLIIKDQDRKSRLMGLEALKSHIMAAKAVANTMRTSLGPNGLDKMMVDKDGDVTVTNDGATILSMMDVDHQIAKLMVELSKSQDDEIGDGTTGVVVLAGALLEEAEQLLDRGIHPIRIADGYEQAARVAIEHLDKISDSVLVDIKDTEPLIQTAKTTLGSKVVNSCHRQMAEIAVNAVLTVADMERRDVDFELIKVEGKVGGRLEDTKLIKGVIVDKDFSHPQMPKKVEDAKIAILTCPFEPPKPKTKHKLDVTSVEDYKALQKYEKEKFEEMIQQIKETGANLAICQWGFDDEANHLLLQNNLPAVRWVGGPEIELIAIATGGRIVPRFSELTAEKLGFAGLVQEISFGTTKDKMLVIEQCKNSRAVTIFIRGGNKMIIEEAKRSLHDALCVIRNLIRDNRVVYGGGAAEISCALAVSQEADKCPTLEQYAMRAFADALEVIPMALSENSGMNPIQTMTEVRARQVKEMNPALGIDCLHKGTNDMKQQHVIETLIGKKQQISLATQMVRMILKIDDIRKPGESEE
UniProt P50990: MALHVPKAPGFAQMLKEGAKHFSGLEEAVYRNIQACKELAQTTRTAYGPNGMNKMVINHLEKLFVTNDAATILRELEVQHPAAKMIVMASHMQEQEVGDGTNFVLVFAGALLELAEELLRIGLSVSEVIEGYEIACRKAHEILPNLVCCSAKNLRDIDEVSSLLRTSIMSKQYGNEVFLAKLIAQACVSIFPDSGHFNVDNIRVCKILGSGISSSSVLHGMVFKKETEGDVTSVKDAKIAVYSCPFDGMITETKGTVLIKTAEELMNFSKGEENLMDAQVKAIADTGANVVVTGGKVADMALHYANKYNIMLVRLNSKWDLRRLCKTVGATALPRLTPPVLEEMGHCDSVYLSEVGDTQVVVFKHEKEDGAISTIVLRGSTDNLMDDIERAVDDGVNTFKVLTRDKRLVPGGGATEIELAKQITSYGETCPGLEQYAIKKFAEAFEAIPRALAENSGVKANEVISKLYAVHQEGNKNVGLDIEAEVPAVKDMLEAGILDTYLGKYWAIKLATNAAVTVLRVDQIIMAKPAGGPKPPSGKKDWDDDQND

B1: CCT2, expressed from a plasmid in HEK293T cells (protein, UniProt P78371 1-535)
chain: MASLSLAPVNIFKAGADEERAETARLTSFIGAIAIGDLVKSTLGPKGMDKILLSSGRDASLMVTNDGATILKNIGVDNPAAKVLVDMSRVQDDEVGDGTTSVTVLAAELLREAESLIAKKIHPQTIIAGWREATKAAREALLSSAVDHGSDEVKFRQDLMNIAGTTLSSKLLTHHKDHFTKLAVEAVLRLKGSGNLEAIHIIKKLGGSLADSYLDEGFLLDKKIGVNQPKRIENAKILIANTGMDTDKIKIFGSRVRVDSTAKVAEIEHAEKEKMKEKVERILKHGINCFINRQLIYNYPEQLFGAAGVMAIEHADFAGVERLALVTGGEIASTFDHPELVKLGSCKLIEEVMIGEDKLIHFSGVALGEACTIVLRGATQQILDEAERSLHDALCVLAQTVKDSRTVYGGGCSEMLMAHAVTQLANRTPGKEAVAMESYAKALRMLPTIIADNAGYDSADLVAQLRAAHSEGNTTAGLDMREGTIGDMAILGITESFQVKRQVLLSAAEAAEVILRVDNIIKAAPRKRVPDHHPC

biological target: ankyrin repeat domain-containing protein 55 (ANKRD55), overexpressed in HEK293T cells (UniProt Q3KP44); experiment: co-IP; ANKRD55 and one CCT subunit overexpressed in HEK293T; RIPA lysate; Protein A/G magnetic beads coupled to 1 ug antibody overnight at 4 C; 4 washes with lysis buffer; immunoblot

Molecule	binding
CCT5, expressed from a plasmid in HEK293T cells (from UniProt P48643 1-541)	no binding
CCT8, expressed from a plasmid in HEK293T cells (from UniProt P50990 1-548)	no binding
B1	binds
